Drawing on paper PMC8514338, this text covers binding for one substance.

Sequences of proteins named here, by UniProt entry; tags and fusion partners are left off. A change or cut given only in a name is not applied to a line headed by its entry.
UniProt Q03468: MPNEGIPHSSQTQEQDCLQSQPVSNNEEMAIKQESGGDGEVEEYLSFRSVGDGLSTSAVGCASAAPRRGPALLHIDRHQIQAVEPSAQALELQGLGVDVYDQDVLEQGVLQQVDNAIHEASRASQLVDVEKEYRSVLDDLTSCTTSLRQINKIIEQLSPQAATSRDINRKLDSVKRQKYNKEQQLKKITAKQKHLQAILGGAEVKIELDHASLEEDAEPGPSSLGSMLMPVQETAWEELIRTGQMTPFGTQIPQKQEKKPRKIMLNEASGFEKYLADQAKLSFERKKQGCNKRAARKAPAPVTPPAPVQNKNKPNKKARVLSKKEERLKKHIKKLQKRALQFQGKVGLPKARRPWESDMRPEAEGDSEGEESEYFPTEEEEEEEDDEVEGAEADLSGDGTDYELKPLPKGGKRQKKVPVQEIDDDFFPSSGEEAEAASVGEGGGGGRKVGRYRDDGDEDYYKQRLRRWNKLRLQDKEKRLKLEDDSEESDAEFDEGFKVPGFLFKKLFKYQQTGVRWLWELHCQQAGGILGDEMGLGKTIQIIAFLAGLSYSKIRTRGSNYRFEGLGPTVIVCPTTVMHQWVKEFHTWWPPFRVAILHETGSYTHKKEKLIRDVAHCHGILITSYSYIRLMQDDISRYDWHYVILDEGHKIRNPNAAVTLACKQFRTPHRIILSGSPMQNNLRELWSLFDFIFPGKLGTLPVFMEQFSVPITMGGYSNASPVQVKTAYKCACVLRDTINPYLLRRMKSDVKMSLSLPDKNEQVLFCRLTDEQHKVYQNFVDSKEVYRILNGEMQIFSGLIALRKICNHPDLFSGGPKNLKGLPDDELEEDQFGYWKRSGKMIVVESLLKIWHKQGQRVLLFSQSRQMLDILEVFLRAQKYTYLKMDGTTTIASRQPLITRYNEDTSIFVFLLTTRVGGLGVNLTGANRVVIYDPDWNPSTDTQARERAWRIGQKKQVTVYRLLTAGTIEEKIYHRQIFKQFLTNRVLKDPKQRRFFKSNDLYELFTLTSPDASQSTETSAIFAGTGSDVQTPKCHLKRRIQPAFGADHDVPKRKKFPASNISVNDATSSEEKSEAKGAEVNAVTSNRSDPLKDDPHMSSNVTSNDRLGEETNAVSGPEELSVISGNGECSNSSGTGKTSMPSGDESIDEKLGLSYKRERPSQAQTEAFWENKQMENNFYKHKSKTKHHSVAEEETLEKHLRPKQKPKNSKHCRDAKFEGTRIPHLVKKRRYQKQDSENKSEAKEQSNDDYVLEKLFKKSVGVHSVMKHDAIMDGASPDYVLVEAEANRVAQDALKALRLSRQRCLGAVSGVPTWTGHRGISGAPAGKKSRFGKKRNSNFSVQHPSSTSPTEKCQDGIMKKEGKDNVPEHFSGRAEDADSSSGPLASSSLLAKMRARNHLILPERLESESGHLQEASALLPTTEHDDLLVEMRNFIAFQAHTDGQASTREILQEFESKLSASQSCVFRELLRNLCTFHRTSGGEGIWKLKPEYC
UniProt Q13619: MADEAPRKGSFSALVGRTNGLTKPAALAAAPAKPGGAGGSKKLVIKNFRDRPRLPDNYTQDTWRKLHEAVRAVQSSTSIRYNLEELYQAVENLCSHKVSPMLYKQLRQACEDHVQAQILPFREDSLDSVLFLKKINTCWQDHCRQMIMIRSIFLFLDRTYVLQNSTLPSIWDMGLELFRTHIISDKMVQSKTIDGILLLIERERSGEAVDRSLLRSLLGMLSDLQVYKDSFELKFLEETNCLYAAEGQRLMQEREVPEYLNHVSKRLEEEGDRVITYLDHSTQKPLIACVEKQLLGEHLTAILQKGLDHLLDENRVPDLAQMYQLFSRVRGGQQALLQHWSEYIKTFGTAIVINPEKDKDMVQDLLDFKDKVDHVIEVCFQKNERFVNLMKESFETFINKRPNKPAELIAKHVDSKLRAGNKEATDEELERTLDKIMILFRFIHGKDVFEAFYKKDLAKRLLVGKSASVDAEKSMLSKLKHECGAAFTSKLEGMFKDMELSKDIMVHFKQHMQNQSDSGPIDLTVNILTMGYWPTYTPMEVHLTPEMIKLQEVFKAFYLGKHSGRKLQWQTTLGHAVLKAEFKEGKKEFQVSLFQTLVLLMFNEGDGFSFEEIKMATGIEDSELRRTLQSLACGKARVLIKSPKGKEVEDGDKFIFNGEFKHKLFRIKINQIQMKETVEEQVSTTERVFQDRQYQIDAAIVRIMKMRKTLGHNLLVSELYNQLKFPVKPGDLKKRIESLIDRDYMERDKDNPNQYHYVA

The assay deals with CSB ATPase-deficient mutant (CSB K538R) (human) (UniProt Q03468). The experiment in a line: cryo-EM structure; structures 4 and 5: Pol II–CSB–CRL4^CSA–UVSSA–SPT6–PAF complex; two conformations of CUL4A–RBX1 (state 1, state 2) from focused 3D classification of one sample; both purified.

These are yes or no findings as the source states them, for the method shown. Some binding calls cover weakened binding; strength is not graded here.

Turning to “cullin-4A (CUL4A) (from UniProt Q13619 1-759)”, the binding entry is “binds”.
